# Patent US8557784B2, “Glycyrrhizinates of morphinan derivatives” (Standard Chem. & Pharm. Co., Ltd., priority 2011, dated 2013)
# Experiment: Evaluation of taste (bitterness) on the tongue by an expert group
# Settings: 5 mg on the tongue; scale 0 no bitter, 1 just perceptible, 2 slightly bitter, 3 bitter, 4 more bitter, 5 very bitter
row,Substance,Average Rating (0-5) of bitterness
1,Dimemorfan phosphate,4.1
2,dextromethorphan glycyrrhizinate,0.2
3,dimemorfan glycyrrhizinate,0.3
